In publication PMC4234293, “Galactosyltransferases from Arabidopsis thaliana in the biosynthesis of type II arabinogalactan: molecular interaction enhances enzyme activity” (BMC Plant Biology, 2014) one finds binding data, which are given here for 1 molecule.

This assay has as its target T1, HA-AtGALT29A (full-length At1g08280 with N-terminal HA tag) (Arabidopsis thaliana) (UniProt Q9SGD2).
T1 sequence: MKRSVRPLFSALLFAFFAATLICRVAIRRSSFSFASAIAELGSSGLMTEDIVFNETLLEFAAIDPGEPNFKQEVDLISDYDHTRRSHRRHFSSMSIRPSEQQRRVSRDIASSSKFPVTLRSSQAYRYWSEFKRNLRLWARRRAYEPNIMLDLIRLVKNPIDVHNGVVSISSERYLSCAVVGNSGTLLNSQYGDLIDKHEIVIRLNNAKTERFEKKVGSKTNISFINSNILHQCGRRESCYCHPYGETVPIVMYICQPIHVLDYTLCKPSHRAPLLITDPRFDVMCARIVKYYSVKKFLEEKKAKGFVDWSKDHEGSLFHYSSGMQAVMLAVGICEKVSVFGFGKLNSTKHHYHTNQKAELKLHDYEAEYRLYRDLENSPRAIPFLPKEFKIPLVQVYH
Kind of assay: co-IP; detergent-treated (5 mM n-dodecyl beta-maltoside) microsomes of N. benthamiana co-expressing both proteins; anti-HA agarose overnight at 4°C, washed in PBS; Western blot with anti-GFP.

These are yes or no findings as the source states them, for the method shown. In cells and extracts the contact can be indirect. Some binding calls cover weakened binding; strength is not graded here. Tags and fused reporters may be left off the sequences shown.

B1: AtGALT31A-GFP (AtGALT31A, At1g32930, as a C-terminal GFP fusion protein) (enzyme, UniProt Q9MAP8 1-399)
chain: MGMGRYQKSATSGVSARWVFVLCISSFLLGVLVVNRLLASFETVDGIERASPEQNDQSRSLNPLVDCESKEGDILSRVSHTHDVIKTLDKTISSLEVELATARAARSDGRDGSPAVAKTVADQSKIRPRMFFVMGIMTAFSSRKRRDSIRGTWLPKGDELKRLETEKGIIMRFVIGHSSSPGGVLDHTIEAEEEQHKDFFRLNHIEGYHELSSKTQIYFSSAVAKWDADFYIKVDDDVHVNLGMLGSTLARHRSKPRVYIGCMKSGPVLAQKGVKYHEPEYWKFGEEGNKYFRHATGQIYAISKDLATYISVNRQLLHKYANEDVSLGSWFIGLDVEHIDDRSLCCGTPLDCEWKGQAGNPCAASFDWSCSGICKSVDRMLEVHQRCGEGDGAIWHSSF
Consider B1, for which the binding entry was “binds”.
